Data taken from PubChem BioAssay AID1487 (National Center for Advancing Translational Sciences (NCATS), 2009).
Where “and” joins values, the source holds several entries; their conditions need not be identical. Identical values can stand only once. The list shows a part of the results. These are further read-outs of the screen, such as a control signal, another cell line or another target. No call is given for them. The list favours compounds with an active or inconclusive main result. Words in brackets tell the shape of the fitted curve; partial curves, single points and poor fits give uncertain potencies.

Test: qHTS Assay for Modulators of Lamin A Splicing
Conditions: HeLa LMNA splicing GFP/RFP minigene ratio, 48 h
Outline: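 S3 HeLa cells stably expressing lamin A-EGFP splicing minigene plus DsRed2, 600 cells/well, 48 h compound exposure at 37C. Laser-scanning cytometry; analysed as GFP (500-530 nm)/RFP (575-640 nm) total intensity ratio; 0.5% DMSO vehicle.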

[1] = measured here: RFP viability control channel
[2] = measured here: GFP splicing reporter channel

SMILES | AC50 [1] | AC50 [2]
Cc1ccc(NS(=O)(=O)c2ccc3c(c2)c(=O)n(C)c(=O)n3C)cc1F | 35.5 µM [rising, single point] | –
Cc1ccc2[nH]c3c(N4CCN(Cc5ccccc5)CC4)ncnc3c2c1 | 12.6 µM [rising, partial curve] | 11.2 µM [rising, partial curve]
CCN1C(=O)c2cccc3c(NC(=O)c4ccc(S(=O)(=O)N(C)C)cc4)ccc1c23 | 31.6 µM [rising, single point] | –
Cc1noc(C)c1CSc1ncnc2sc3c(c12)CCC(C)C3 (centres undefined) | 35.5 µM [rising, single point] | 35.5 µM [rising, single point]
CC(C)C(C(=O)OCC(=O)c1ccccc1)N1C(=O)C2C3C=CC(C3)C2C1=O (centres undefined) | – | 0.141 µM [rising, full curve, poor fit]
O=C(NCc1ccccc1)Nc1cccn(Cc2ccccc2)c1=O | 17.8 µM [rising, partial curve] | –
Cc1ccc2c(c1)nnn2C1CCN(CC(=O)Nc2ccc3c(c2)OCCO3)CC1 | 11.2 µM [rising, single point] | –
CCOC(=O)c1c(NC(=O)C2=C(C)NC(=S)NC2c2ccc(F)cc2)sc(C)c1C (centres undefined) | 25.1 µM [rising, single point] | 11.2 µM [rising, partial curve]
COc1ccc(N2CCN(CCCNC(=O)Cn3c(-c4cccs4)cc4ccccc43)CC2)cc1 | – | 11.2 µM [falling, partial curve]
O=C(CCSc1ccccc1Cl)Nc1cccc([N+](=O)[O-])c1 | 20 µM [rising, single point] | 11.2 µM [rising, single point]
O=C(Nc1ccc(Cl)cc1C(=O)NCc1cccnc1)c1ccc(Cl)cc1Cl | 2 µM [rising, partial curve] | –
Fc1ccc(/C=N/NC2=Nc3cccc4cccc2c34)cc1 | 35.5 µM [falling, single point] | 35.5 µM [falling, single point]
Cc1ccc(C(=O)/C=C/c2cn(CC(O)CN3CCOCC3)c3ccccc23)cc1 (centres undefined) | 11.2 µM [rising, partial curve, poor fit] | –
Cc1cc(C(=O)CSc2n[nH]c(-c3ccccc3F)n2)c(C)n1Cc1cccs1 | 22.4 µM [rising, single point] | –
CCN(CC)CCCN(C(=O)c1cccs1)c1nc(-c2ccc(OC)cc2)cs1 | – | 35.5 µM [rising, single point]
CC(NC(=O)/C(=C/c1ccc(OC(F)F)cc1)c1ccccc1)c1ccccc1 (centres undefined) | 22.4 µM [rising, single point] | –
N#Cc1ccc(NCCc2ccccn2)c([N+](=O)[O-])c1 | 14.1 µM [falling, single point] | 5.62 µM [rising, single point]
COc1ccc(CNC(=O)CN(c2ccccc2)S(=O)(=O)c2ccccc2[N+](=O)[O-])cc1 | 35.5 µM [falling, partial curve] | 22.4 µM [falling, single point]
CCN(CC)S(=O)(=O)c1ccc(Cl)c(NC(=O)COC(=O)c2cc(-c3ccccc3Cl)nc3ccccc23)c1 | – | 3.55 µM [rising, single point]
O=C(c1ccc2c(c1)OCO2)C1CCCN(Cc2ccc3nsnc3c2)C1 (centres undefined) | 22.4 µM [falling, partial curve, poor fit] | 15.8 µM [falling, partial curve, poor fit]
Cc1cc(Cl)ccc1NC(=S)NCCC(c1ccccc1)c1ccccc1 | 35.5 µM [rising, single point] | –
COc1cc2c(cc1OC)C1Cc3ccc(OC)c(OC)c3CN1CC2 (centres undefined) | 14.1 µM [rising, partial curve] | –
COc1ccc(/C=N/Nc2nc3ccccc3[nH]2)cc1OC | 12.6 µM [rising, partial curve] | –
CC(C)(C)c1ccc(C(=O)Nc2ccc(N3CCOCC3)cc2)cc1 | 35.5 µM [rising, single point] | 35.5 µM [rising, single point]
Cc1cccc(/C(N)=N/OC(=O)Cc2ccccc2)c1 | – | 1.26 µM [rising, partial curve]
COc1ccc(S(=O)(=O)N2CCOCC2)cc1NC(=O)c1cc2c(s1)CCCC2 | 17.8 µM [rising, partial curve, poor fit] | 12.6 µM [rising, single point]
COC(=O)c1[nH]c2c(c1C)C(=O)CC(c1cc(OC)ccc1OC)C2 (centres undefined) | 8.91 µM [rising, partial curve] | –

SMILES | AC50 [1] | AC50 [2]
CCNc1nc(NCC)nc(SCCOC(=O)Nc2ccc(Cl)cc2Cl)n1 | – | 31.6 µM [rising, single point]
Cc1cc(C)c2cc(C#N)c(NCCNC(=S)NCCCN3CCOCC3)nc2c1 | – | 3.16 µM [falling, partial curve, poor fit]
O=C(COc1ccccc1C(=O)NCC1CCCO1)Nc1ccc(Cl)cc1Cl (centres undefined) | 35.5 µM [falling, single point] | 22.4 µM [falling, single point]
COc1cc(NC(=O)c2ccco2)c(OC)cc1NC(=O)c1cc(OC)c(OC)c(OC)c1 | 20 µM [rising, single point] | –
CC(C)(C)c1ccc(Cn2c(=N)n(CC(O)c3ccco3)c3ccccc32)cc1 (centres undefined) | 20 µM [falling, partial curve, poor fit] | 15.8 µM [falling, partial curve]
COc1ccc(-c2nc(CCNS(=O)(=O)c3ccc4c(c3)OCCO4)cs2)cc1 | 11.2 µM [rising, partial curve] | –
Oc1ccc(/C=C/c2cc(O)cc(O)c2)cc1 | 5.01 nM [falling, full curve, poor fit] and 35.5 µM [rising, single point] | 10 µM [falling, partial curve] and 25.1 µM [falling, single point]
O=C(O)c1cccc(N2C(=O)/C(=C/c3ccc(SCc4ccc(Cl)cc4)o3)SC2=S)c1 | 14.1 µM [rising, partial curve, poor fit] | –
CCOC(=O)N1CCN(C(c2cccnc2)c2ccc3cccnc3c2O)CC1 (centres undefined) | 12.6 µM [falling, partial curve, poor fit] | 7.08 µM [falling, single point]
CC(C)CNS(=O)(=O)c1ccc(CCC(=O)N2CCN(Cc3ccccc3)CC2)cc1 | 3.16 µM [rising, single point] | –
CCCCCOC(=O)Cn1c(=O)c2c(nc(N3CCOCC3)n2C)n(C)c1=O | 0.0562 µM [falling, full curve, poor fit] | –
O=C(Nc1ccc2c(c1)oc1ccccc12)C1CC1 | 3.16 µM [rising, partial curve, poor fit] | –
O=C(N/N=C/c1cccc([N+](=O)[O-])c1)c1ccc(Br)cc1 | 12.6 µM [falling, partial curve, poor fit] | –
O=C(Nn1c(SCc2ccc(F)cc2)nc2ccsc2c1=O)c1ccccc1 | 31.6 µM [rising, single point] | –
CCOc1ccc(/C=N/NC(=O)C(C)N(c2ccc(OC)cc2)S(C)(=O)=O)cc1 (centres undefined) | 2.82 µM [falling, partial curve] | 3.16 µM [falling, partial curve]
Cc1ccc2nc(NC(=O)CN(C)S(=O)(=O)c3cccc4nsnc34)sc2c1 | 2.82 µM [rising, single point] | –
Cc1cc(C)cc(N=C2NC(=O)/C(=C/c3cccs3)S2)c1 | 35.5 µM [rising, single point] | 25.1 µM [rising, single point]
O=[N+]([O-])c1cccc(C2=NCCS2)c1 | 0.00447 µM [falling, full curve, poor fit] | 0.00501 µM [falling, full curve, poor fit]
Cc1cc(Nc2ccccc2)c2c([N+](=O)[O-])c(C)cc(C)c2n1 | 35.5 µM [rising, single point] | –
Cc1ccc(/C=C/C(=O)N2CCN(S(=O)(=O)c3ccc(C)c(C)c3)CC2)o1 | 28.2 µM [rising, single point] | –
Cc1ccc(SCc2noc(C(=O)NC(C)C)c2C(=O)O)cc1C | – | 8.91 µM [falling, single point]
Cc1cc(=O)oc2c3c4c(cc12)OCCN4CCC3 | 14.1 µM [rising, partial curve, poor fit] | –
COc1ccc(NC(=O)CC2C(=O)N(c3ccc(F)cc3)C(=S)N2NC(=O)c2ccc(Cl)cc2)cc1 (centres undefined) | 22.4 µM [rising, single point] | 17.8 µM [rising, partial curve]
Cc1ccc(S(=O)(=O)Nc2ccc3c(c2)OCCO3)cc1 | 0.158 µM [rising, full curve, poor fit] | –
CC(=O)c1c(C)[nH]c(C(=O)OCC(=O)Nc2sc3c(c2C#N)CCCC3)c1C | 2.82 µM [rising, full curve] | 0.891 µM [rising, full curve, poor fit]
CCOC(=O)C(C(=O)OCC)C(Nc1ccccc1)c1ccccc1 (centres undefined) | 10 µM [rising, partial curve, poor fit] | –
COc1cc(C(=O)N2CCc3c([nH]c4ccccc34)C2c2ccc(C)cc2)cc(OC)c1OC (centres undefined) | 3.98 µM [falling, full curve, poor fit] | 5.01 µM [falling, full curve, poor fit]
